In PubChem BioAssay AID2685 (National Center for Advancing Translational Sciences (NCATS), 2010):
The other results are listed elsewhere or left out. These are further read-outs of the screen, such as a control signal, another cell line or another target. No call is given for them. Most of these compounds were active or inconclusive in the main read-out, so they are no random draw. The note in brackets gives the kind of curve behind each potency; many fits are weak.

Assay: qHTS Assay for Lipid Storage Modulators in Drosophila S3 Cells;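 as to cell number change: cells counted by Cell Tracker Red CMTPX staining in the red channel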
Details: BODIPY lipid droplet fluorescence, 18-24 h; for cell number change: measured here: cell count max response, cells fed with added oleic acid
Procedure, shortened: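 Drosophila S3 cells loaded with oleic acid (400 uM, as added) and compounds at several concentrations; lipid droplets imaged by 488-nm laser-scanning cytometry, 500–530 nm intensity and object ratio to cell channel. Percent activity normalized to 20 uM Triacsin C.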

[1] = measured here: lipid fluorescence (Fed channel) AC50, cells fed with added oleic acid
[2] = measured here: cell number channel AC50, cells fed with added oleic acid

Question: With `O=C(Nc1nnc(C2=COCCO2)o1)c1ccc(Cl)cc1` as the compound, how does the cell number change read?
Answer: -7.33%

Question: And the AC50 [1]?
Answer: 2.31 µM [rising, full curve]

Question: For `COc1cc(OC)cc(C(=O)NCCNc2nc3cc(C)cc(C)c3cc2C#N)c1`, which cell number change is on record?
Answer: -18.8%

Question: Which AC50 [1] does the source give for `CC(C)Oc1cccc(C(=O)O)c1` here?
Answer: 29.1 µM [falling, single point]

Question: Which results are given for `Nc1ncnc(Nc2ccccc2Cl)n1`?
Answer: cell number change: -24.9%; AC50 [1]: 0.0731 µM [falling, partial curve, poor fit]

Question: Which cell number change does the source give for `O=C(Nc1ccc(-c2nc3c(ccc4ccccc43)o2)cc1)c1ccco1` here?
Answer: -14.3%

Question: What about the AC50 [2] of the same compound?
Answer: 1.16 µM [rising, partial curve]

Question: And the AC50 [1]?
Answer: 0.58 µM [rising, partial curve, poor fit]

Question: Which results are given for `CCC(C(=O)Nc1ccccc1N1CCCC1)c1ccccc1` (stereo not given)?
Answer: cell number change: 14.6%; AC50 [1]: 6.51 µM [rising, single point]

Question: For `O=C(N/N=C/c1ccccn1)c1cc(-c2ccc(Cl)cc2)nc2ccccc12`, which cell number change is on record?
Answer: 0.308%

Question: And the AC50 [1]?
Answer: 2.06 µM [rising, partial curve]

Question: For `COc1ccc2oc(=Nc3ccccc3)c(-c3nc4ccccc4[nH]3)cc2c1`, which cell number change is on record?
Answer: -39.1%

Question: And the AC50 [2]?
Answer: 9.2 µM [falling, partial curve]

Question: What about the AC50 [1] of the same compound?
Answer: 16.4 µM [falling, partial curve]

Question: With `CCOC(=O)c1c(-c2cccs2)csc1NC(=O)c1ccncc1` as the compound, how does the cell number change read?
Answer: -1.4%

Question: What about the AC50 [1] of the same compound?
Answer: 0.366 µM [rising, full curve, poor fit]

Question: Which cell number change does the source give for `Cc1nc2ccc(NC(=O)N3CCC(c4ccccc4)C3)cc2nc1C` (stereo not given) here?
Answer: 209%

Question: What about the AC50 [1] of the same compound?
Answer: 29.1 µM [rising, single point]

Question: What does the source list for `O=C(Nc1nccs1)c1ccc(Br)c(S(=O)(=O)N2CCCC2)c1`?
Answer: cell number change: -56.9%; AC50 [2]: 20.6 µM [falling, partial curve, poor fit]

Question: What does the source list for `c1ccc(-c2cc3ccccc3[nH]2)cc1`?
Answer: cell number change: -22%; AC50 [1]: 23.1 µM [falling, partial curve]

Question: For `CCOc1ccc(Oc2ccc(Cl)cc2NC(=O)C2=COCCO2)cc1`, which cell number change is on record?
Answer: -3.36%

Question: What does the source list for `CC[C@@](C)(NS(=O)(=O)OCC(Cl)(Cl)Cl)c1ccccc1`?
Answer: cell number change: 9.58%; AC50 [1]: 25.9 µM [rising, single point]

Question: For `O=[N+]([O-])c1cnccc1NC1CCCCC1`, which cell number change is on record?
Answer: -19.8%

Question: For `N#C/C(=C/c1ccc(Sc2nc3ccccc3[nH]2)o1)c1ccccc1F`, which cell number change is on record?
Answer: 0.804%

Question: What about the AC50 [2] of the same compound?
Answer: 1.03 µM [rising, partial curve]

Question: And the AC50 [1]?
Answer: 0.259 µM [rising, full curve, poor fit]

Question: Which cell number change does the source give for `COc1cccc(CN(C)C(=O)Cc2c[nH]c3ccccc23)c1` here?
Answer: 19.4%

Question: What about the AC50 [1] of the same compound?
Answer: 4.61 µM [rising, full curve, poor fit]

Question: What does the source list for `Cc1ccc(NCc2nnc(SCCN3CCCCC3)n2CC2CCCO2)c(C)c1` (stereo not given)?
Answer: cell number change: -11.3%; AC50 [1]: 16.4 µM [rising, partial curve, poor fit]

Question: Which cell number change does the source give for `CCCCOc1ccc(CNC(=O)NS(=O)(=O)c2ccc(OCC(C)C)cc2)cc1` here?
Answer: 18.3%

Question: With `CC(C)c1ccc(/C=N/Nc2cc(N3CCOCC3)nc(N3CCOCC3)n2)cc1` as the compound, how does the cell number change read?
Answer: 12.1%

Question: Which cell number change does the source give for `CCNc1nc(SC(C)C(=O)OC)nc(N2CCOCC2)n1` (stereo not given) here?
Answer: -24.7%

Question: And the AC50 [2]?
Answer: 1.3 µM [falling, full curve, poor fit]

Question: Which results are given for `O=C(CN(Cc1ccc(Br)cc1)S(=O)(=O)c1ccccc1)NCc1cccnc1`?
Answer: cell number change: 1.66%; AC50 [1]: 3.55 µM [rising, single point]

Question: Which cell number change does the source give for `N#CCCn1c(SCC(=O)NCC2CCCO2)nc2ccccc21` (stereo not given) here?
Answer: 9.21%

Question: And the AC50 [1]?
Answer: 23.1 µM [falling, single point]

Question: For `CCOC(=O)c1ccccc1NC(=O)c1cccc2c1C(=O)N(C1CCN(C(=O)OCC)CC1)C2`, which cell number change is on record?
Answer: 28.7%

Question: And the AC50 [1]?
Answer: 29.1 µM [rising, single point]

Question: What does the source list for `CCc1nc(SCC(=O)N2CC(=O)Nc3ccccc32)c2c(C)c(C)sc2n1`?
Answer: cell number change: -15.9%; AC50 [1]: 13 µM [falling, partial curve, poor fit]

Question: Which results are given for `NC(=O)C1CCN(C(=O)CN(c2cccc(C(F)(F)F)c2)S(=O)(=O)c2ccccc2)CC1`?
Answer: cell number change: -6.65%; AC50 [2]: 0.0326 µM [falling, full curve, poor fit]

Question: With `COc1cc(/C=C(\CC(=O)O)c2nc3ccccc3s2)cc(OC)c1O` as the compound, how does the cell number change read?
Answer: 29.4%

Question: What about the AC50 [1] of the same compound?
Answer: 6.51 µM [falling, single point]

Question: What does the source list for `COc1ccc(CCNC(=O)CSc2ccc(-c3ccccc3)nn2)cc1OC`?
Answer: cell number change: -13.1%; AC50 [1]: 10.3 µM [falling, single point]

Question: With `COc1ccccc1NC(=O)COC(=O)c1cnc(C)cn1` as the compound, how does the cell number change read?
Answer: 28.1%

Question: With `O=C(CSc1c2c(nc3ccc(Cl)cc13)CCCC2)NCc1ccco1` as the compound, how does the AC50 [2] read?
Answer: 0.13 µM [rising, full curve, poor fit]

Question: Which results are given for `CCC1CCCCN1S(=O)(=O)c1ccc2[nH]c(=O)ccc2c1` (stereo not given)?
Answer: cell number change: 13.3%; AC50 [1]: 16.4 µM [falling, single point]

Question: For `Cc1cc(C(=O)NCC(=O)OC(C(=O)Nc2cc(C(F)(F)F)ccc2Cl)c2ccccc2)ccc1[N+](=O)[O-]` (stereo not given), which AC50 [2] is on record?
Answer: 1.46 µM [rising, partial curve]

Question: What about the AC50 [1] of the same compound?
Answer: 1.64 µM [rising, partial curve]

Question: For `COc1ccc(CNC(=O)C(c2cccc(C)c2)N(C(=O)c2csnn2)C2CC2)cc1` (stereo not given), which AC50 [1] is on record?
Answer: 1.84 µM [falling, partial curve]

Question: Which cell number change does the source give for `COc1ccc(CC(=O)NCCc2cnc[nH]2)cc1` here?
Answer: -24.8%

Question: What does the source list for `Cc1cc(OCC(=O)O/N=C(\N)Cc2cccs2)ccc1Br`?
Answer: cell number change: 113%; AC50 [1]: 23.1 µM [rising, single point]

Question: Which cell number change does the source give for `CC(=O)Nc1ccc(NC(=O)C(C)OC(=O)CC2CCCCC2)cc1` (stereo not given) here?
Answer: -2.36%

Question: What does the source list for `O=C(O)c1ccccc1C(=O)OCc1ccccc1`?
Answer: cell number change: -31.9%; AC50 [2]: 1.46 µM [falling, full curve, poor fit]; AC50 [1]: 2.59 µM [falling, partial curve]

Question: What does the source list for `CCOC(=O)Cn1c(=O)c2c(nc(N3CCCCC3)n2Cc2ccccc2)n(C)c1=O`?
Answer: cell number change: -22.1%; AC50 [2]: 0.00461 µM [falling, full curve, poor fit]

Question: With `O=C(NCc1cccnc1)C1CCCN(S(=O)(=O)c2ccccc2)C1` (stereo not given) as the compound, how does the cell number change read?
Answer: -6.74%

Question: What about the AC50 [1] of the same compound?
Answer: 0.731 µM [falling, single point]

Question: Which results are given for `O=c1c2ccccc2nc(/C=C/c2ccc([N+](=O)[O-])cc2)n1CCCO`?
Answer: cell number change: 7.33%; AC50 [1]: 11.6 µM [rising, partial curve]

Question: With `CSCCC(NC(=O)c1ccccc1)C(=O)N/N=C(\C)Cc1ccccc1` (stereo not given) as the compound, how does the cell number change read?
Answer: 16.4%

Question: And the AC50 [2]?
Answer: 3.26 µM [rising, single point]

Question: Which cell number change does the source give for `N#CCSc1nnc(-c2ccc3c(c2)OCO3)o1` here?
Answer: 12.6%

Question: What about the AC50 [1] of the same compound?
Answer: 11.6 µM [rising, partial curve, poor fit]

Question: Which cell number change does the source give for `CC(C)Cc1cc(C(=O)N(C)C2CCCN(Cc3ccccc3F)C2)n(C)n1` (stereo not given) here?
Answer: 14.7%

Question: And the AC50 [1]?
Answer: 29.1 µM [rising, single point]

Question: With `CC(C)CN1C(=O)C(=O)N(CC(=O)NCc2ccc3c(c2)OCO3)C1=O` as the compound, how does the cell number change read?
Answer: 3.33%

Question: With `NC(=O)NC(CC(=O)NNC(=O)c1ccccn1)c1ccc(Cl)cc1` (stereo not given) as the compound, how does the cell number change read?
Answer: -1.81%

Question: With `C/C(=N\NC(=O)c1cccc(Cl)c1)C1C(=O)c2ccccc2C1=O` as the compound, how does the AC50 [2] read?
Answer: 0.0291 µM [rising, full curve, poor fit]

Question: Which cell number change does the source give for `O=C(CC1S/C(=N/N=C2CCCCCC2)NC1=O)Nc1ccccc1C(F)(F)F` (stereo not given) here?
Answer: -38.1%

Question: What about the AC50 [2] of the same compound?
Answer: 20.6 µM [falling, partial curve, poor fit]

Question: With `Cc1ccc(C)c(NS(=O)(=O)c2ccc(-c3cnc(C4CC4)o3)cc2)c1` as the compound, how does the cell number change read?
Answer: -2.06%

Question: And the AC50 [1]?
Answer: 18.4 µM [falling, single point]

Question: What does the source list for `O=C(OCC(=O)C12CC3CC(CC(C3)C1)C2)c1cccnc1Cl`?
Answer: cell number change: -16.5%; AC50 [1]: 20.6 µM [falling, single point]

Question: Which results are given for `COc1ccc(/C=N/n2cnc3c([nH]c4ccc(C)cc43)c2=O)cc1CN1CCCC1`?
Answer: cell number change: -47.6%; AC50 [2]: 29.1 µM [falling, single point]; AC50 [1]: 29.1 µM [falling, single point]

Question: Which results are given for `O=C(COC(=O)c1ccccn1)NCc1ccccc1`?
Answer: cell number change: -32.6%; AC50 [2]: 18.4 µM [falling, single point]; AC50 [1]: 29.1 µM [falling, single point]

Question: Which AC50 [1] does the source give for `CC(C)Cn1c(SCC(=O)N2CCN(S(=O)(=O)c3ccccc3)CC2)nc2ccccc21` here?
Answer: 32.6 µM [falling, single point]

Question: With `COc1ccccc1/C=N/NC(=O)C(C)Cn1cnc2ccccc21` (stereo not given) as the compound, how does the cell number change read?
Answer: 11.2%

Question: And the AC50 [1]?
Answer: 13 µM [rising, partial curve]

Question: For `CC(C)OCCCNC(=O)c1ccncc1`, which cell number change is on record?
Answer: 2.79%

Question: With `COc1cccc2cc(C(=O)C3=C(O)C(=O)N(CCN4CCOCC4)C3c3ccc(C(C)(C)C)cc3)oc12` (stereo not given) as the compound, how does the cell number change read?
Answer: -8.85%

Question: And the AC50 [1]?
Answer: 0.58 µM [rising, single point]

Question: For `Cc1ccc(-n2c(SCC(=O)Nc3ccc(Cl)cc3)nc(O)cc2=O)cc1`, which cell number change is on record?
Answer: -7.63%

Question: What about the AC50 [1] of the same compound?
Answer: 29.1 µM [rising, single point]

Question: What does the source list for `O=C(CNc1cccc(C(F)(F)F)c1)N/N=C/C1CCCCC1`?
Answer: cell number change: -35.7%; AC50 [2]: 9.2 µM [falling, partial curve]

Question: What does the source list for `CC1CCC(NC(=O)C2CCN(C(=O)Nc3ccccc3)CC2)CC1` (stereo not given)?
Answer: cell number change: -2.39%; AC50 [1]: 6.51 µM [falling, single point]

Question: Which cell number change does the source give for `Cc1cccc(C(=O)N2CCN(CCNC(=O)C(=O)Nc3ccc(F)cc3)CC2)c1` here?
Answer: 14.8%

Question: With `O=C(CSc1nc2ccccc2c(=O)n1-c1ccccc1F)Nc1ccc2c(c1)CCC2` as the compound, how does the cell number change read?
Answer: -37.4%

Question: What about the AC50 [2] of the same compound?
Answer: 6.51 µM [rising, single point]

Question: And the AC50 [1]?
Answer: 6.51 µM [rising, single point]

Question: Which results are given for `Cc1ccc(S(=O)(=O)/N=C2\SC(CC(=O)Nc3ccc(F)cc3)C(=O)N2c2ccccc2)cc1` (stereo not given)?
Answer: cell number change: 150%; AC50 [2]: 29.1 µM [rising, partial curve]

Question: Which cell number change does the source give for `COCCN(C(=O)CSc1ncccn1)c1c(N)n(Cc2ccccc2)c(=O)[nH]c1=O` here?
Answer: 97.3%

Question: And the AC50 [2]?
Answer: 29.1 µM [rising, single point]

Question: And the AC50 [1]?
Answer: 6.51 µM [falling, single point]
